Data as given in PubChem BioAssay AID504764 (Drosophila RNAi Screening Center, 2011).
Assay: 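Genes whose knock-down alters Notch-dependent transcription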 (primary screen). System: Drosophila Kc167 cells. Reagents: long dsRNA against Drosophila genes. Timing: about 5 days (4 days dsRNA, then 24 h after transfection). Treatment: transfection of constitutively active membrane-tethered Notch lacking the extracellular domain, read 24 h later. Measured: 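Firefly luciferase from an E(spl)m3 reporter with active Notch, plus control-promoter and uninduced reporter wells for normalisation; unnormalised counts, duplicate wells a and b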. Reading the numbers: induced reporter light, run 1, well a and induced reporter light, run 1, well b: higher = more light from the Notch target reporter with active Notch; control promoter light, run 1, well a and control promoter light, run 1, well b: higher = more light from the viral control promoter (cell number, transfection, viability); uninduced reporter light, run 1, well a: higher = more light from the Notch target reporter without active Notch. Active means: 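Wells with low control signal or poorly matching duplicates excluded; duplicates averaged; per source plate, z beyond ±2 for induced/control log2 ratio or beyond ±1.8 for induced/uninduced marks a hit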. Calls: active = modifier hit (raised or lowered Notch signal); inactive = not a hit.
The screen tested about 22,000 reagents; shown is a random part of those that have a named target and a result. Of all reagents, 403 (1.9%) are marked active. 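Unnormalised raw counts per well; ratio z-scores behind the hit calls and whether each hit raises or lowers signal are not deposited.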 A plus sign joins genes that one reagent is predicted to hit. Not stated in the record: the amount of reagent.

target	dsRNA	induced reporter light, run 1, well a	induced reporter light, run 1, well b	control promoter light, run 1, well a	control promoter light, run 1, well b	uninduced reporter light, run 1, well a	activity call
CG17715	DRSC11950	1.16e5	1.22e5	1.30e5	1.10e5	10555	inactive
CG12057	DRSC17797	1.00e5	93290	1.37e5	1.38e5	6785	inactive
CG13045	DRSC09926	2.36e5	1.80e5	3.15e5	2.11e5	8645	inactive
fidipidine	DRSC07618	1.76e5	1.07e5	2.45e5	1.79e5	11455	inactive
CG17026	DRSC10237	1.60e5	1.65e5	1.60e5	1.26e5	8082	inactive
CG9175	DRSC03153	2.19e5	2.24e5	2.47e5	2.15e5	18545	inactive
rogdi	DRSC10906	89755	1.00e5	57260	70845	9165	inactive
nw	DRSC06749	1.28e5	1.14e5	1.88e5	1.76e5	9840	inactive
nw	DRSC06896	1.14e5	78315	86950	61080	7580	inactive
MED23 + CG3700	DRSC04406	1.39e5	1.25e5	1.13e5	1.14e5	11865	inactive
MED23 + CG3700	DRSC04407	1.86e5	1.92e5	1.46e5	1.59e5	14750	inactive
mfr	DRSC10543	2.32e5	1.95e5	2.51e5	2.60e5	11405	inactive
lap	DRSC12628	1.55e5	1.35e5	74955	80905	9265	inactive
CG9171	DRSC03152	63765	72855	67155	65145	4670	inactive
CG15550	DRSC15088	96125	1.08e5	1.17e5	1.40e5	9325	inactive
snRNA:U1:95Cc + snRNA:U1:95Cb	DRSC13641	1.93e5	1.97e5	1.98e5	2.03e5	17950	inactive
hh	DRSC16965	1.29e5	1.43e5	1.68e5	1.50e5	11665	inactive
CG11779	DRSC14384	42505	59630	73330	74355	4425	inactive
CG9682	DRSC16536	1.57e5	2.03e5	2.28e5	2.31e5	15630	inactive
Nup133	DRSC16150	75990	88470	1.13e5	1.03e5	5940	inactive
CG5742	DRSC06949	85675	85475	1.59e5	1.63e5	6870	inactive
CG12502	DRSC08281	91275	97840	1.52e5	1.96e5	7380	inactive
CG15172	DRSC02473	54600	43260	45915	41945	2810	inactive
Zpr1	DRSC18432	2.49e5	2.24e5	2.49e5	2.49e5	17410	inactive
bap	DRSC16908	2.11e5	1.90e5	2.69e5	2.88e5	15610	inactive
Argk1	DRSC08959	2.40e5	2.04e5	2.12e5	2.06e5	14745	inactive
Argk1	DRSC09668	2.77e5	2.64e5	3.36e5	3.28e5	17482	inactive
Argk1	DRSC10460	87725	1.07e5	59990	32140	8688	inactive
nsr	DRSC04427	99195	1.09e5	81690	74610	7375	inactive
CG34300	DRSC13977	1.85e5	1.75e5	2.00e5	1.88e5	15230	inactive
Cpsf5	DRSC10374	98980	96365	59730	36535	7670	inactive
a6	DRSC18733	1.91e5	2.01e5	2.65e5	2.76e5	13275	inactive
CG31482	DRSC12582	79160	1.00e5	80855	60815	4528	inactive

Ordered by “induced reporter light, run 1, well a” (lowest first): 9 of the entries above.
target	dsRNA	induced reporter light, run 1, well a	induced reporter light, run 1, well b	control promoter light, run 1, well a	control promoter light, run 1, well b	uninduced reporter light, run 1, well a	activity call
CG15172	DRSC02473	54600	43260	45915	41945	2810	inactive
Argk1	DRSC10460	87725	1.07e5	59990	32140	8688	inactive
CG12502	DRSC08281	91275	97840	1.52e5	1.96e5	7380	inactive
nsr	DRSC04427	99195	1.09e5	81690	74610	7375	inactive
CG34300	DRSC13977	1.85e5	1.75e5	2.00e5	1.88e5	15230	inactive
bap	DRSC16908	2.11e5	1.90e5	2.69e5	2.88e5	15610	inactive
Argk1	DRSC08959	2.40e5	2.04e5	2.12e5	2.06e5	14745	inactive
Zpr1	DRSC18432	2.49e5	2.24e5	2.49e5	2.49e5	17410	inactive
Argk1	DRSC09668	2.77e5	2.64e5	3.36e5	3.28e5	17482	inactive

The results go on.
target	dsRNA	induced reporter light, run 1, well a	induced reporter light, run 1, well b	control promoter light, run 1, well a	control promoter light, run 1, well b	uninduced reporter light, run 1, well a	activity call
Vps39	DRSC16205	61925	73005	57805	58700	5915	inactive
PNKP	DRSC16512	96395	1.18e5	75555	67900	6040	inactive
Spn47C	DRSC07030	1.45e5	1.40e5	1.30e5	1.42e5	13842	inactive
Gycalpha99B	DRSC16690	1.92e5	1.90e5	2.47e5	2.87e5	15885	inactive
Cpr31A	DRSC02779	1.06e5	1.16e5	70330	87620	17575	inactive
inc	DRSC17954	97965	1.29e5	1.48e5	2.00e5	9110	inactive
inc	DRSC18512	1.84e5	2.02e5	2.68e5	2.91e5	13725	inactive
CG31038	DRSC15051	1.48e5	1.46e5	1.81e5	1.90e5	9310	inactive
CG31038	DRSC16326	1.28e5	1.34e5	2.08e5	1.92e5	14805	inactive
CG31038	DRSC16327	1.01e5	1.04e5	1.48e5	1.62e5	7950	inactive
SmF	DRSC07397	42870	38020	52185	59410	4350	inactive
Gs1	DRSC00753	1.48e5	1.79e5	2.20e5	2.36e5	18482	inactive
CG3065	DRSC04333	1.22e5	1.57e5	86985	99880	10540	inactive
CG34277 + CG31542	DRSC21544						inactive
Gli	DRSC03332	1.18e5	1.27e5	1.41e5	1.46e5	9405	inactive
SPH93	DRSC02978	1.46e5	1.48e5	1.71e5	1.72e5	11005	inactive
Psi	DRSC07519	63460	77890	1.62e5	1.77e5	8220	inactive
wnd	DRSC09626	2.26e5	3.14e5	3.66e5	2.31e5	20235	inactive
wnd	DRSC11046	99075	1.41e5	93900	94315	7560	inactive
CG30339	DRSC05168	37860	46925	49135	53220	2305	inactive
ERR	DRSC10840	1.02e5	87490	79205	46200	12342	inactive
CG4066	DRSC15541	73570	70195	87990	71880	3815	inactive
Adk3	DRSC05917	1.64e5	1.73e5	1.23e5	1.34e5	9835	inactive
Obp85a	DRSC14362	78670	95740	81400	92370	4780	inactive
Obp22a	DRSC00088	95135	71610	1.24e5	1.29e5	7335	inactive
CG4679	DRSC06880	94845	77270	1.12e5	88440	7270	inactive
CG33992 (retired record) + CG43755	DRSC00012	99455	76140	1.16e5	1.16e5	6355	inactive
CG12853	DRSC06193	1.02e5	98265	1.36e5	1.41e5	7245	inactive
CG13862	DRSC14712	1.87e5	1.98e5	2.19e5	2.08e5	13565	inactive
CG33278	DRSC10336	1.79e5	1.59e5	1.93e5	1.70e5	7565	inactive
CG14662	DRSC12248	1.17e5	1.20e5	1.35e5	1.47e5	9145	inactive
